Data published in patent publication US20220133913A1 (KOREA BASIC SCIENCE INSTITUTE, published 2022).
Substitutions are numbered along the chain they refer to. Results are given in words; binding and its absence hold for the method and conditions named. Some entries that bind do so weakly or less than the wild type. For some assays here: Tags and fused reporters may be left off the sequences shown.

Amino acid sequences for entries named in this document (tags omitted). A change or cut given only in a name is not applied to a line headed by its entry.
UniProt P06756: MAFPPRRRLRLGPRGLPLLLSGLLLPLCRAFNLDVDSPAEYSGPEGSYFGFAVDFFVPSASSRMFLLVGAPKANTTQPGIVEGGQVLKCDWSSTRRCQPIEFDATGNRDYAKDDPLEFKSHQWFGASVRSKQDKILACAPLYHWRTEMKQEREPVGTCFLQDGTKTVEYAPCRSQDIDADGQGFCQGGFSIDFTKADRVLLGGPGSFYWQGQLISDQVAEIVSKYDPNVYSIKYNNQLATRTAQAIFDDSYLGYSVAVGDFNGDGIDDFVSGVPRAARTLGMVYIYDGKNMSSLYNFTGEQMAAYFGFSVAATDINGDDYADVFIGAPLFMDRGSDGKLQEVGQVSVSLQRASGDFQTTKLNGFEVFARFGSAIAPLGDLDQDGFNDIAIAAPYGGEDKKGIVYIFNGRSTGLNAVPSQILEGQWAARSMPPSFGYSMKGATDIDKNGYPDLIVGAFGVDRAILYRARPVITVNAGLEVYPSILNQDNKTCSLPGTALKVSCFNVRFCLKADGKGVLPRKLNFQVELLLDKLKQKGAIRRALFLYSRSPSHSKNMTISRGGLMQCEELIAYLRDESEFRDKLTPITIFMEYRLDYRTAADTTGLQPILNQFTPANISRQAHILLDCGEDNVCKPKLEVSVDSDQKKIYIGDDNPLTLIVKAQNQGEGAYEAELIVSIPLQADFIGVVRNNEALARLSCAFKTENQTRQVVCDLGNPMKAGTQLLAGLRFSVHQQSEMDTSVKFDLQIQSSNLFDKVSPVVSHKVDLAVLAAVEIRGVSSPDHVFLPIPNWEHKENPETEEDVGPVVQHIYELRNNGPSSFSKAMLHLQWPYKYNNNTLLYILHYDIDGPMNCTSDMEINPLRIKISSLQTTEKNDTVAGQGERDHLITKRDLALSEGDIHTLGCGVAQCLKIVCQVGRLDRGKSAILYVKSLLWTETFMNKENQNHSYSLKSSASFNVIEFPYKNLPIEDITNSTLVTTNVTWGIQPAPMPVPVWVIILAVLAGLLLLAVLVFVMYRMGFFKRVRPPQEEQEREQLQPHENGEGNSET

B1: VHH-12 (VHH)
VHH: EVQLVESGGGSVQPGESLRLSCVASGYTVSSSCMAWFRQAPGKEREVVATIVVTSDTTSTFYADSVKGRFTISPDNAKNTLNLQMNSLEPSDTAMYYCAADRKWNVCSRGYRYTPNWANQFTFWGQGTQVTVSS
notes: also called clone 12
B2: VHH-13 (VHH)
VHH: B1 VHH with E1H
notes: also called clone 13
B3: VHH-25 (VHH)
VHH: EVQLVESGGGSVQAGGSLRLSCVVSGYTCSVYDMIWYRQPPGKEREFVSLINSNGRTTYADSVKGRFTISQNNAKNTVYLQMNSLKPEDTAMYYCHAACYSPSRLNYWGQGTQVTVSS
notes: also called clone 25
B4: VHH-22 (VHH)
VHH: B3 VHH with E1Q, Q113L
notes: also called clone 22
B5: VHH-16 (VHH)
VHH: DVQLVESGGGSVQPGGSLRLSCAASGYTVENSCMAWFRQAPGKEREVVATIVTNNATGTFYADSVKGRFTVSQDNAKNTLNLQMNSLEPEDTAMYYCAADTKWIVCSRGYRYTPNWANQFKYWGQGTQVTVSS
notes: also called clone 16
B6: clone 28 (VHH)
VHH: B1 VHH
B7: clone 32 (VHH)
VHH: B1 VHH
B8: clone 19 (VHH)
VHH: B1 VHH
B9: clone 21 (VHH)
VHH: B1 VHH with E1H
B10: clone 4 (VHH)
VHH: B1 VHH with S91P
B11: clone 14 (VHH)
VHH: B1 VHH with E1D, Q129L
B12: VHH-11 (VHH)
VHH: B1 VHH with E1D, Q129L
notes: also called clone 11
B13: clone 27 (VHH)
VHH: B1 VHH with E1H
B14: VHH-17 (VHH)
VHH: B1 VHH with E1D, Q129L
notes: also called clone 17
B15: VHH-15 (VHH)
VHH: B1 VHH with S91P
notes: also called clone 15
B16: clone 2 (VHH)
VHH: B1 VHH with S91P
B17: clone 3 (VHH)
VHH: B1 VHH with S91P
B18: clone 29 (VHH)
VHH: B1 VHH with E1D, Q129L
B19: clone 26 (VHH)
VHH: B3 VHH with E1Q, Q113L
B20: clone 8 (VHH)
VHH: B5 VHH
B21: clone 18 (VHH)
VHH: B5 VHH
B22: clone 40 (VHH)
VHH: B5 VHH with E30D, G58S, Q73H, S86T, Q119H, K121N, Q128L
B23: VHH-20 (VHH)
VHH: B5 VHH with E30D, G58S, Q73H, S86T, Q119H, K121N, Q128L
notes: also called clone 20
B24: clone 30 (VHH)
VHH: B5 VHH with E30D, G58S, Q73H, S86T, Q119H, K121N, Q128L
B25: VHH-23 (VHH)
VHH: HVQLVESGGGSVQTGGSLRLSCAASGYTSSTVYMAWFRQTPGKQREGVAAIYTGGGPTYYADSVKGRFTISQDNAKNTVYLQMNTLKPEDTAMYYCAADRYVYRLVTNWYRPSFYTYWGQGTQVTVSS
notes: also called clone 23
B26: single-domain antibody VHH-13 containing His6 tag (VHH)
VHH: B1 VHH with E1H
notes: also called Nanobody #13
B27: single-domain antibody VHH-22 containing His6 tag (VHH)
VHH: B3 VHH with E1Q, Q113L
notes: also called Nanobody #22
B28: single-domain antibody VHH-25 containing lysin and His6 tags (VHH)
VHH: B3 VHH
notes: also called Nanobody #25-Lys; VHH-25-K1; not shown: C-terminal lysine tag and His6 tag with any linker
B29: single-domain antibody VHH-25 containing His6 tag (VHH)
VHH: B3 VHH
notes: also called Nanobody #25; pALT-Avb3 VHH25 product

target: T1, human αvβ3 integrin ITGAVB3 (human, UniProt P06756 31-992; P05106 27-718, limits assumed); test: ELISA of soluble VHH
T1 construct: Recombinant heterodimer used as immunogen, ELISA coating and SPR ligand; also called A5B3; A5b3

binding | Binder
binds | B1
binds | B2
binds | B3
binds | B4
binds | B5

target: T1, human αvβ3 integrin ITGAVB3; test: phage ELISA

binding | Binder
binds | B6
binds | B1
binds | B7
binds | B8
binds | B9
binds | B10
binds | B11
binds | B2
binds | B12
binds | B13
binds | B14
binds | B15
binds | B16
binds | B17
binds | B18
binds | B3
binds | B19
binds | B4
binds | B5
binds | B20
binds | B21
binds | B22
binds | B23
binds | B24
binds | B25

target: T1, human αvβ3 integrin ITGAVB3; test: SPR, αvβ3 integrin immobilised on a CMDH chip, nanobody as analyte

binding | Binder
binds | B26
binds | B27
binds | B28
binds | B29

target: T1, human αvβ3 integrin ITGAVB3; test: SPR

binding | Binder
binds | B26
binds | B27
binds | B29

target: T1, human αvβ3 integrin ITGAVB3; test: ELISA

binding | Binder
binds | B6
binds | B1
binds | B8
binds | B9
binds | B11
binds | B2
binds | B12
binds | B13
binds | B14
binds | B15
binds | B18
binds | B3
binds | B19
binds | B4
binds | B5
binds | B21
binds | B23
binds | B24
binds | B25
